The other results are listed elsewhere or left out. Further columns of the screen follow, without active or inactive calls. Compounds called inactive in the main read-out are mostly missing here. The note in brackets gives the kind of curve behind each potency; many fits are weak.
Assay: qHTS Assay to Find Inhibitors of Chronic Active B-Cell Receptor Signaling
Conditions: ABC-DLBCL IkBa-CBG/CBR reporter, luminescence ratio (green luciferase fused to IkBa over red control in TMD8 lymphoma cells), 4 h
Outline: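 Compounds up to 46 uM were incubated four hours with TMD8 cells whose green CBG68 luciferase is fused to IkappaBalpha; red CBR luminescence normalised the signal, and concentration-effect curves were fitted to fusion, red and ratio data.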

[1] = measured here: CBR red luminescence, cell number
[2] = measured here: IkBa-CBG green luminescence

SMILES	AC50 [1]	AC50 [2]
Nc1nc2ccccc2n1/N=C/c1ccc(-c2ccccc2)o1	31.6 µM [falling, single point]	–
COc1ccc(C)cc1NC(=O)NCc1ccc(F)cc1	15.8 µM [rising, single point]	–
CC(C)C[C@@H](C)C(=O)N(Cc1ccccc1)c1ccccc1	0.0651 µM [rising, full curve, poor fit]	–
O=C(O)c1ccc2c(=O)[nH]c(CCl)nc2c1	17.8 µM [falling, single point]	–
CCCCn1nc(NC(=O)c2cccs2)c2cc3cc(OC)ccc3nc21	29.1 µM [falling, single point]	–
COc1ccccc1CC(=O)Nc1cccc(C(=O)Nc2nccs2)c1	6.31 µM [falling, partial curve]	–
Cn1c(N)c(C(=O)NCc2ccccc2)sc1=S	7.31 µM [rising, partial curve, poor fit]	–
Cc1ccc(S(=O)(=O)N2CCN(Cc3nc4ccccc4[nH]3)CC2)cc1C	0.411 µM [rising, full curve, poor fit]	–
O=C1C([N+](=O)[O-])=C(O)c2cccc3cccc1c23	20 µM [falling, single point]	–
COc1ccc(/C=C/CN2CCCC(CO)(Cc3cccc(Cl)c3)C2)cc1 (configuration not stated)	0.112 µM [rising, full curve, poor fit]	–
N/C(=N\OC(=O)/C=C/c1ccccc1Cl)c1cccnc1	0.447 µM [rising, full curve, poor fit]	–
COc1ccc(-c2cc(C(F)(F)F)n3nc(C(=O)N4CCCCC4)cc3n2)cc1OC	5.62 µM [rising, single point]	–
O=C1Nc2c(c(=O)[nH]c(=O)n2-c2ccccc2)C(C(F)(F)F)(C(F)(F)F)N1	32.6 µM [falling, single point]	–
Cc1cccnc1NC(=O)Nc1cccs1	0.82 µM [rising, full curve, poor fit]	–
COc1ccc(CCc2cc(OC)cc(=O)o2)cc1	35.5 µM [rising, single point]	–
O=C(N/N=C1\CCCc2oc(C(=O)O)cc21)c1ccccc1	7.08 µM [falling, partial curve, poor fit]	–
O=C(O)c1cc(-c2ccc3c(c2)OCO3)nc2ccccc12	2 µM [falling, full curve]	–
O=S(=O)(c1ccc(OCC2CO2)cc1)c1ccc(OCC2CO2)cc1 (configuration not stated)	–	12.6 µM [falling, partial curve, poor fit]
Nc1nc(Nc2ccccc2)nc2ccccc12	17.8 µM [falling, single point]	–
O=C(c1ccccc1F)N1CCN(Cc2ccccc2F)CC1	0.116 µM [falling, full curve, poor fit]	–
Cc1ccc2cc(CN(CCN3CCOCC3)C(=O)NCc3ccccc3)c(=O)[nH]c2c1C	2.82 µM [rising, full curve, poor fit]	–
O=c1c2ccccc2nnn1Cc1nnc(-c2ccccc2Br)o1	11.2 µM [falling, partial curve]	–

SMILES	AC50 [1]	AC50 [2]
CCCCN(CCCC)C(=O)CSc1nnc(-c2cc(OC)c(OC)c(OC)c2)o1	32.6 µM [rising, single point]	–
Cn1nc(C(F)(F)F)cc1C(=O)O	2.82 µM [falling, partial curve]	–
CCOC(=O)c1c(CSc2ccccc2)oc2cc(Br)c(O)c(CN(C)C)c12	35.5 µM [falling, single point]	–
C[C@H](CO)N1C[C@H](C)[C@@H](CN(C)C(=O)Nc2ccc(C(F)(F)F)cc2)Oc2ccc(NC(=O)c3ccncc3)cc2C1=O	9.2 µM [rising, partial curve]	–
O=C(O)c1cccc(NC(=S)N/N=C/c2cccc(O)c2)c1	11.2 µM [falling, partial curve, poor fit]	–
O=C(COc1cccc2c1CCNC2=O)Nc1cccc(C(F)(F)F)c1	13 µM [falling, partial curve, poor fit]	–
CCOC(=O)Cc1nnc(NC(=O)CSc2nnc3c4ccccc4n(C(C)C)c3n2)s1	3.26 µM [falling, full curve]	2.59 µM [rising, partial curve, poor fit]
COc1cc(C2CC(=O)Oc3cc(OC)c(OC)c(OC)c32)cc(OC)c1OC (configuration not stated)	1.03 µM [rising, full curve, poor fit]	–
Cc1c(OCC(=O)NCCCN2CCOCC2)ccc2c(-c3ccccc3)cc(=O)oc12	35.5 µM [rising, single point]	–
CCOCC(=O)Nc1nnc(C2CCCCC2)s1	29.1 µM [falling, single point]	–
O=C(NC1CCCC1)c1cccc(Cn2cc([N+](=O)[O-])cn2)c1	11.6 µM [rising, partial curve, poor fit]	–
O=c1oc2cc(Br)ccc2n1Cc1ccccc1	35.5 µM [rising, single point]	–
O=C(COC(=O)c1ccccc1[N+](=O)[O-])c1ccc2c(c1)OCO2	1.64 µM [rising, partial curve]	–
Cc1nc(C)c(-c2ccc(SCc3cccc(F)c3)nn2)s1	5.62 µM [falling, partial curve, poor fit]	–
COc1ccc(NS(=O)(=O)c2cccc(C(=O)N(C)Cc3ccc(SC)cc3)c2)cc1	29.1 µM [falling, single point]	–
Cc1cccc(CS(=O)(=O)CC2Nc3ccc(C(=O)NCc4ccccc4Cl)cc3NC2=O)c1 (configuration not stated)	3.16 µM [falling, partial curve, poor fit]	–
COc1cccc2sc(N(CCCN(C)C)C(=O)c3ccc(S(=O)(=O)N4CCCc5ccccc54)cc3)nc12	35.5 µM [falling, single point]	–
COC(=O)c1ccccc1NC(=O)CSc1nnc(-c2cccnc2)n1C	2.91 µM [falling, partial curve, poor fit]	–
Cc1ccccc1/C=N/n1c(COc2ccccc2)n[nH]c1=S	15.8 µM [rising, partial curve, poor fit]	–
O=C(CSc1ncnc2ccccc12)c1ccco1	8.91 µM [falling, partial curve]	–
CNC(=O)NC(=O)CSc1nc2cc(C(=O)OC)ccc2c(=O)n1-c1ccccc1	3.98 µM [rising, partial curve, poor fit]	–
COc1cccc(NC(=O)c2cnn(-c3ccccc3)c2C)c1	11.2 µM [falling, partial curve]	–

SMILES	AC50 [1]	AC50 [2]
CCOc1ccc(C2c3[nH]c4ccccc4c3C[C@H]3C(=O)N(C4CCN(Cc5ccccc5)CC4)CC(=O)N23)cc1OC (some centres not stated)	15.8 µM [falling, single point]	–
COC(=O)C(CC(C)C)Oc1ccc2c(C)cc(=O)oc2c1 (configuration not stated)	0.731 µM [rising, partial curve, poor fit]	–
O=C(CNC(=O)c1ccccc1F)N/N=C/c1ccc2c(c1)OCO2	4.47 µM [falling, partial curve, poor fit]	–
Nc1ncnc2c1ncn2[C@@H]1O[C@H](CNC(=O)[C@@H]2CCCN2S(=O)(=O)c2ccc(F)cc2)[C@@H](O)[C@H]1O	29.1 µM [rising, single point]	23.1 µM [falling, partial curve]
NC(=O)COC(=O)Cc1coc2cc3c(cc12)CCC3	0.355 µM [falling, partial curve, poor fit]	–
Cc1cc(=O)oc2cc(NC(=O)c3ccccc3Cl)ccc12	1.58 µM [falling, full curve]	–
CCCCC/C=C/C1=CC(=O)C[C@H](c2ccc3c(c2)OCO3)C1	16.4 µM [rising, partial curve]	–
C/C(CC(=O)Nc1ccccn1)=N\NC(=O)c1cnccn1	28.2 µM [falling, single point]	–
O=S(=O)(c1ccc(F)cc1)c1nc(-c2ccccc2F)oc1N1CCCCC1	1.16 µM [rising, full curve, poor fit]	–
O=C(O)CCN=C1CCc2ccccc2N1	20.6 µM [falling, single point]	–
O=C(Nc1ccc(Cl)cc1)Nc1csc([N+](=O)[O-])c1	6.31 µM [rising, single point]	–
Cc1cccc(C)c1NC(=O)CNC(=O)c1ccccc1OCc1ccccc1	2.06 µM [rising, full curve, poor fit]	–
Cc1cccc(N2CCN(S(=O)(=O)c3c(C)[nH]c(=O)[nH]c3=O)CC2)c1C	16.4 µM [rising, partial curve, poor fit]	–
Brc1csc2ncccc12	35.5 µM [rising, single point]	–
COCCn1c(C)cc(C(=O)CSc2nc3ccccc3s2)c1C	7.31 µM [rising, single point]	–
O=C(CCc1nc2ccccc2c(=O)[nH]1)Nc1cc(Cl)ccc1N1CCCCC1	7.31 µM [falling, partial curve, poor fit]	–
CN1Cc2c(N3CCOCC3)nc3sc(C(=O)c4ccc(Br)cc4)c(N)c3c2CC1(C)C	14.1 µM [falling, single point]	–
COc1ccccc1N=C(C)C1=C(O)CC(c2ccccc2)CC1=O (configuration not stated)	22.4 µM [rising, single point]	22.4 µM [falling, single point]
O=C(O)Cc1c(C(=O)O)[nH]c2ccc(C(=O)O)cc12	10 µM [falling, partial curve]	–
CN(C)CCNC(=O)C1CC(=O)N(c2ccc(F)c(Cl)c2)C1 (configuration not stated)	1.46 µM [falling, partial curve, poor fit]	–

In another format: 12 of the compounds above
SMILES | AC50 [1] | AC50 [2]
CC(C)C[C@@H](C)C(=O)N(Cc1ccccc1)c1ccccc1 | 0.0651 µM [rising, full curve, poor fit] | –
O=C(O)c1ccc2c(=O)[nH]c(CCl)nc2c1 | 17.8 µM [falling, single point] | –
COc1ccc(-c2cc(C(F)(F)F)n3nc(C(=O)N4CCCCC4)cc3n2)cc1OC | 5.62 µM [rising, single point] | –
Nc1nc(Nc2ccccc2)nc2ccccc12 | 17.8 µM [falling, single point] | –
O=c1c2ccccc2nnn1Cc1nnc(-c2ccccc2Br)o1 | 11.2 µM [falling, partial curve] | –
Cn1nc(C(F)(F)F)cc1C(=O)O | 2.82 µM [falling, partial curve] | –
O=C(CSc1ncnc2ccccc12)c1ccco1 | 8.91 µM [falling, partial curve] | –
COc1cccc(NC(=O)c2cnn(-c3ccccc3)c2C)c1 | 11.2 µM [falling, partial curve] | –
O=C(CNC(=O)c1ccccc1F)N/N=C/c1ccc2c(c1)OCO2 | 4.47 µM [falling, partial curve, poor fit] | –
C/C(CC(=O)Nc1ccccn1)=N\NC(=O)c1cnccn1 | 28.2 µM [falling, single point] | –
Cc1cccc(C)c1NC(=O)CNC(=O)c1ccccc1OCc1ccccc1 | 2.06 µM [rising, full curve, poor fit] | –
COc1ccccc1N=C(C)C1=C(O)CC(c2ccccc2)CC1=O (configuration not stated) | 22.4 µM [rising, single point] | 22.4 µM [falling, single point]

— PubChem BioAssay AID493014 (National Center for Advancing Translational Sciences (NCATS), 2011)
